Values from PubChem BioAssay AID1259254 (NCATS, 2017).
Screen: 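Genome-wide screen for genes that prevent DNA re-replication in cancer cells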 (primary screen). Cells: human HCT116 colorectal cancer cells. Reagents: single siRNA against human genes. Duration: 3 days. Detection: 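Nuclei stained with Hoechst and imaged; cell-cycle phase assigned by DNA content; G2 share scaled per plate, non-targeting siRNA 0%, GMNN siRNA 100%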. Scale: G2 robust z-score and G2 cells, % of GMNN control: higher = more G2 cells, more excess DNA replication; raw share of cells in G2: higher = larger share of cells with G2 DNA content. Active means: 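Active siRNAs have a G2 robust z of 5 or more median absolute deviations over the median, which in these data means about 38% or higher of GMNN control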.
The whole screen tested about 59,000 reagents; shown is a random part of them. In the full data, about 1,550 (2.6%) are marked active. 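G2 share is only a proxy for re-replication; each gene was hit by three separate siRNAs, and active genes were retested.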 Raw values vary from plate to plate and are shown uncorrected. Unmarked entries are inactive. The numbers tell different reagents against one gene apart. Not stated in the record: the amount of reagent.

| gene knocked down | siRNA no. | G2 robust z-score | G2 cells, % of GMNN control | raw share of cells in G2 (%) |
| --- | --- | --- | --- | --- |
| SLC6A14 | 1 | -0.255 | 1.17 | 6.84 |
| SLC6A14 | 2 | -0.653 | -1.63 | 3.61 |
| SLC6A14 | 3 | 2.09 | 17.7 | 9.92 |
| NRP2 | 1 | 1.98 | 16.9 | 10.7 |
| NRP2 | 2 | 1.25 | 11.8 | 9.4 |
| NRP2 | 3 | -0.513 | -0.641 | 4.25 |
| KALRN | 1 | 2.05 | 17.4 | 11.4 |
| KALRN | 2 | 0.39 | 5.71 | 7.13 |
| KALRN | 3 | 0.725 | 8.07 | 7.6 |
| FBXO43 | 1 | 1.2 | 11.4 | 7.8 |
| FBXO43 | 2 | 0.082 | 3.54 | 4.41 |
| FBXO43 | 3 | -0.899 | -3.36 | 2.25 |
| PFDN2 | 1 | -0.488 | -0.465 | 4.78 |
| PFDN2 | 2 | 2.09 | 17.6 | 11.2 |
| PFDN2 | 3 | -0.738 | -2.23 | 2.55 |

3 consecutive records already listed, for reference:
| gene knocked down | siRNA no. | G2 robust z-score | G2 cells, % of GMNN control | raw share of cells in G2 (%) |
| --- | --- | --- | --- | --- |
| SLC6A14 | 3 | 2.09 | 17.7 | 9.92 |
| NRP2 | 1 | 1.98 | 16.9 | 10.7 |
| NRP2 | 2 | 1.25 | 11.8 | 9.4 |

Continued.
| gene knocked down | siRNA no. | G2 robust z-score | G2 cells, % of GMNN control | raw share of cells in G2 (%) |
| --- | --- | --- | --- | --- |
| PEX39 | 1 | -0.233 | 1.33 | 3.92 |
| PEX39 | 2 | -0.514 | -0.649 | 2.9 |
| PEX39 | 3 | -0.572 | -1.05 | 3.22 |
| PRR20A | 1 | -0.231 | 1.35 | 2.21 |
| PRR20A | 2 | -0.592 | -1.2 | 3.61 |
| PRR20A | 3 | -1.27 | -5.97 | 1.55 |
| RBM6 | 1 | -1.07 | -4.59 | 3.7 |
| RBM6 | 2 | -1.13 | -4.99 | 2.23 |
| RBM6 | 3 | 2.97 | 23.9 | 15.9 |
| ZNHIT2 | 1 | 0.0512 | 3.33 | 4.32 |
| ZNHIT2 | 2 | 0.707 | 7.94 | 6.61 |
| ZNHIT2 | 3 | 1.62 | 14.4 | 11.6 |
| HARS1 | 1 | -1.21 | -5.53 | 3.58 |
| HARS1 | 2 | 0.975 | 9.83 | 7.8 |
| HARS1 | 3 | 0.553 | 6.86 | 7.54 |
